Patent CN110305214A
No constants are given. Whether binding was seen depends on the method and setting. Some results given as binding are weak or reduced against the parent protein; the word gives no strength.

B1: W3452-1.164.16-z11-IgG1K (antibody, V domains shown)
VH: QVQLQESGPGLVKPSETLSLTCTVSGFSLTNYHVYWIRQPPGKGLEWIGVMWNHGDTSYNSPLKSRVTISVDTSKSQFSLKLSSVTAADTAVYYCARGGYVPDYWGQGTMVTVSS
VL: DIVMTQSPLSLPVTPGEPASISCRSSQSLVHSNAKTYLHWYLQKPGQSPQLLIYRVSNRFSGVPDRFSGSGSGTDFTLKISRVEAEDVGVYYCLQTTHFPYTFGQGTKLEIK
B2: W3452-2.683.2-z27-IgG1L (antibody, V domains shown)
VH: EVQLVESGGGLVQPGRSLRLSCAASGFTFSTYGMAWVRQAPGKGLEWVSSISTSGGSTYYRDSVQGRFTISRDNAKSSLYLQMNSLRAEDTATYYCTTKGGRTYRLAYWGQGTLVTVSS
VL: SYELMQPPSVSVSPGQTARITCSGIELSNKYAHWYQQKPGQAPVEVMYKDSERPSGIPERFSGSRSGTTVTLTISGVQAEDEADYYCLSTNSDDDLPVFGGGTKLTVL
B3: W3452-2.683.2-z27-IgG4PE,L (antibody, V domains shown)
VH: B2 VH
VL: B2 VL

biological target: 食蟹猴CD47 (cynomolgus monkey CD47) (cynomolgus monkey); test: FACS on cynomolgus PBMC

binding, binds:
B1
B2
B3
